From paper doi:10.1101/2020.07.23.218024

Protein sequences, listed by entry. Tags and fused reporters are not part of them. Lines headed by an entry give the natural chain unless they say otherwise; changes in a name come on top. Residues count along the entry.
human ß-tubulin peptides of the region aa 187–211 (P07437, residues 187-211): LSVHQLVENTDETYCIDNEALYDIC
human ß-tubulin peptides of the region aa 391–431 (P07437, residues 391-431): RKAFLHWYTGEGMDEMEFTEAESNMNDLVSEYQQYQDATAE
UniProt O75381: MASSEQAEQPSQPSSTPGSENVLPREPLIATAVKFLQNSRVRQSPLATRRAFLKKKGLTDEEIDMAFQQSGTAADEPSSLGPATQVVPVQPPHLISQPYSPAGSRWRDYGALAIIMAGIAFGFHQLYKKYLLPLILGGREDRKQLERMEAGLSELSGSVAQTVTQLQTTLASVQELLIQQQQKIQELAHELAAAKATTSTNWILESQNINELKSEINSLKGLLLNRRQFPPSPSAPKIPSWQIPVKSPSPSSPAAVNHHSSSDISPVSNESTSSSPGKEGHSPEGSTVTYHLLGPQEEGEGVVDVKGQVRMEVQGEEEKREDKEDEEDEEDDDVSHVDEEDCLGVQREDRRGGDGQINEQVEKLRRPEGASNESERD

Columns and labels:
[1] = target: human ß-tubulin peptides of the region aa 187–211 (human) (UniProt P07437); experiment: peptide or protein array
[2] = target: human ß-tubulin peptides of the region aa 391–431 (human) (UniProt P07437); experiment: peptide or protein array

With “GST-PEX14-NTD (from UniProt O75381) (domain or fragment)” the binding [1] was “binds” and the binding [2] was “binds”.

These are yes or no findings as the source states them, for the method shown. Binding can be weak; no strength is given.
